In patent publication US12012394B2, “Alpha-synuclein ligands” (Washington University, priority 2018, dated 2024):
“And” between values parts separate entries of the source, which are not always exact repeats. Identical values can stand only once. At least one compound was matched to its structure with a doubt left.

What was measured:
Banner AD tissue = assay: Homologous competition radioligand binding assay, AD tissue; design: species or system human
Protocol: (§1) The equilibrium dissociation constant (Kd) for a series of compounds was determined using direct radioactive competitive binding assays (homologous or heterologous) with either recombinant α-synuclein fibrils or brain tissue homogenates from AD cases.
Brain tissue samples were selected from an autopsy case series of patients evaluated for parkinsonism by movement disorders specialists at the Movement Disorders Center of Washington University School of Medicine in St. Louis. The clinical diagnosis of idiopathic PD was based on modified United Kingdom Parkinson's Disease Society Brain Bank clinical diagnostic criteria with clear clinical response to levodopa [Hughes, A. J., et al, “Accuracy of clinical diagnosis of idiopathic Parkinson's disease: a clinico-pathological study of 100 cases,” 1992, J. Neurol. Neurosurg. Psychiatry, 55:181-184]. Dementia was determined by a movement disorders specialist based on clinical assessment of cognitive dysfunction sufficiently severe to impair activities of daily living, with further evaluation of cognitive impairment using the AD8 and Mini-Mental Status Exam (MMSE) [Galvin, J. E., et al., “The AD8: a brief informant interview to detect dementia,” 2005, Neurology 65:559-564; Folstein, M. F., et al., ““Mini-mental state”. A practical method for grading the cognitive state of patients for the clinician,” 1975, J Psychiatr Res, 12:189-198]. LB stage was assessed at autopsy using a PD staging scale (range: 0, 1-6) [Braak, H., et al., “Stages in the development of Parkinson's disease-related pathology,” 2004, Cell Tissue Res., 318:121-134]. PD cases were selected based on a clinical diagnosis of PD plus dementia, Braak LB stage 5-6 pathology, and the absence of significant Aβ or tau pathology determined by immunohistochemistry. […]
(§2) These direct binding assays used a fixed concentration of either fibrils or PD/AD tissue and the radioligand (e.g., [^18F]28) and varying concentration ranges of corresponding homologous non-radiolabeled standard reference compound. […] Reactions were incubated at 37° C. for 1 h before quantifying bound radioligand. […]

[1] = biological target: Banner PD-seeded α-synuclein fibrils (Homo sapiens (Human), UniProt P37840); assay: Homologous competition radioligand binding assay, PD-seeded fibrils
Protocol: as §1
Recombinant protein was produced in E. coli using protocols based on previously described methods for α-synuclein [Giasson, B. I., et al., “Mutant and wild type human alpha-synucleins assemble into elongated filaments with distinct morphologies in vitro,” 1999, J Biol. Chem., 274:7619-7622; Huang, C., et al., “A new method for purification of recombinant human alpha-synuclein in Escherichia coli,” 2005, Protein Expr Purif, 42:173-177; Yu, L., et al, “Synthesis and in vitro evaluation of á-synuclein ligands,” 2012, Bioorg. Med. Chem., 20:4625-4634] and tau [Li, W., et al., “Characterization of two VQIXXK motifs for tau fibrillization in vitro,” 2006, Biochemistry, 45:15692-15701]. BL21(DE3)RIL E. coli were transformed with a pRK172 bacterial expression plasmid containing the human α-synuclein coding sequence. […]. […]
Purified recombinant α-synuclein monomer (2 mg/ml) was incubated in 20 mM Tris-HCl, pH 8.0, 100 mM NaCl for 72 h at 37 C with shaking at 1000 rpm in an Eppendorf Thermomixer. […] The concentration of α-synuclein monomer in the supernatant was determined in a BCA protein assay according to the manufacturer's instructions, using a bovine serum albumin (BSA) standard curve. The measured decrease in α-synuclein monomer concentration was used to determine the concentration of fibrils in the 72 h fibril reaction mixture. […]
as §2

Banner PD tissue = Banner PD tissue (Homo sapiens, UniProt P37840); assay: Homologous competition radioligand binding assay, PD tissue; details: initial competitive binding assay
healthy control tissue = assay: Homologous competition radioligand binding assay, nonspecific control substrate; design: species or system human

SMILES: COc1ccc(Nc2ccc3cc(OCCF)ccc3n2)cn1 [TZ61-44]
- binding towards Banner AD tissue (Banner AD tissue; 400 μg of Banner AD tissue): no significant binding
- Kd (Banner AD tissue; 800 μg Banner AD (wet wt./well)): 54 nM
- Bmax (Banner AD tissue; 800 μg wet wt./well Banner AD): 185 pmol/nmol
- Bmax ([1]; 25 nM Banner PD seeded fibrils, listed as [^18F]TZ61-44): 40 pmol/nmol and 44 pmol/nmol
- binding affinity towards PD / α-synuclein fibrils ([1]; preliminary / initial competitive binding assays): good binding affinity
- selectivity ([1]; preliminary binding assays): moderate selectivity
- binding affinity for PD tissues (Banner PD tissue): moderate binding affinity
- binding towards healthy control tissue (healthy control tissue; 800 μg healthy control tissue): no significant binding
- Bmax (healthy control tissue; 800 μg wet wt./well non-specific substrate): 323 pmol/nmol
